From article PMC4017264 (Molecular Cell, 2014)

Tested on: endogenous LUBAC complex
Experiment: size exclusion chromatography (gel filtration) analysis of cell extracts
Design: species or system human

With “OTULIN: full-length OTULIN (aa 1–352), Met1-specific deubiquitinase” the “elution peaks of endogenous OTULIN” value (HEK293ET lysate prepared in absence of phosphatase inhibitors) was “two peaks at 600 and 40 kDa”, the “elution size range of the majority of endogenous OTULIN” value (HEK293ET lysate, phosphatase inhibitors present) was 100–150 kDa and the “fraction of endogenous OTULIN eluting at ∼100–150 kDa” value (HEK293ET lysate, phosphatase inhibitors present, Superdex 200) was > 95%.
